From patent publication US10428044B2, “3-amino-1,5,6,7-tetrahydro-4H-indol-4-ones” (Bayer Pharma Aktiengesellschaft, priority 2014, dated 2019) come the findings set out here.

The chains behind the UniProt entries cited, without tags or fusion partners. Residues count along the entry.
UniProt O43683, 704-1085 limits assumed: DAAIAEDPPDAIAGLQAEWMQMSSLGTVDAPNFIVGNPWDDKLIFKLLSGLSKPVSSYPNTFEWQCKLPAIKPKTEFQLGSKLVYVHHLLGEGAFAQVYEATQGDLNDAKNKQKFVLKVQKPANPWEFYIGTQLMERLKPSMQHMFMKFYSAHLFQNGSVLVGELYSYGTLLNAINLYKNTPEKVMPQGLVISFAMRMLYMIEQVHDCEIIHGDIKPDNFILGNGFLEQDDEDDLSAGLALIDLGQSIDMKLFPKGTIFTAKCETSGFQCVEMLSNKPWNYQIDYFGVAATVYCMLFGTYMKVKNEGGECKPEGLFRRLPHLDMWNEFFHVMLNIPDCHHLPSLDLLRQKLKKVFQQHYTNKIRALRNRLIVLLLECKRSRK

Molecules are shown by their SMILES. The match of structure and compound is tentative.

The assay deals with (recombinant) catalytic domain of human Bub1 (amino acids 704-1085) (Homo sapiens (Human), UniProt O43683). As to the kind of experiment: Bub1 kinase assay (TR-FRET). The following applies: read-out: Biological Assay: Bub1 kinase assay median IC50, ATP 10 μM final, peptide substrate 1 μM final, 60 min at 22° C.

For the compound `O=C(COCc1cccnc1)Nc1cc(-c2[nH]c3c(c2Nc2ccccc2)C(=O)CCC3)ccn1`, the IC50 stood at 5.28 nM.
